This is one part of the list. Most entries show no effect beyond the scatter of the controls.
The targets below were run with CC1(C)S[C@@H]2[C@H](NC(=O)[C@H](N)c3ccccc3)C(=O)N2[C@H]1C(=O)O [ampicillin] (assay: log2 fold change of tryptic peptide abundance, ligand vs vehicle (limited proteolysis) (log2 ratio); higher = more trypsin-susceptible (destabilized)). Settings: ligand concentration: 10 uM; sample: E. coli crude lysate.

By UniProt entry, the sequences of proteins in these tests, tags left out. Where a name states a change or a piece, a line headed by the entry shows the natural chain unless it says otherwise.
UniProt P37626: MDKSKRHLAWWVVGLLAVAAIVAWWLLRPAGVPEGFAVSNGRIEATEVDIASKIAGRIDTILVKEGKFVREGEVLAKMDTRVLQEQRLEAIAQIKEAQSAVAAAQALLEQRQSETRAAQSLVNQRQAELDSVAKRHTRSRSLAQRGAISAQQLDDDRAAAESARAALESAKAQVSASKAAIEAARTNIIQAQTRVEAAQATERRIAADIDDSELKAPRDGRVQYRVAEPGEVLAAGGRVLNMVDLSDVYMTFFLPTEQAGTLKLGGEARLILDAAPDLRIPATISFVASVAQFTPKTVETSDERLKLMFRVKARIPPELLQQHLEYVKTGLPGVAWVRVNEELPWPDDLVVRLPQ
UniProt P45769: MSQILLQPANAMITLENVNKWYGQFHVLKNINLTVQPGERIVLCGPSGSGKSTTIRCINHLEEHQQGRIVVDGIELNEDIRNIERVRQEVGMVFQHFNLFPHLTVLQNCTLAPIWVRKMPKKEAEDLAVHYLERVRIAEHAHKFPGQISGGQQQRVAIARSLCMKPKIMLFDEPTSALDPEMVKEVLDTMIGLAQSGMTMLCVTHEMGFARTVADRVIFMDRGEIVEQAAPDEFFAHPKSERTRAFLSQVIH
UniProt P39315: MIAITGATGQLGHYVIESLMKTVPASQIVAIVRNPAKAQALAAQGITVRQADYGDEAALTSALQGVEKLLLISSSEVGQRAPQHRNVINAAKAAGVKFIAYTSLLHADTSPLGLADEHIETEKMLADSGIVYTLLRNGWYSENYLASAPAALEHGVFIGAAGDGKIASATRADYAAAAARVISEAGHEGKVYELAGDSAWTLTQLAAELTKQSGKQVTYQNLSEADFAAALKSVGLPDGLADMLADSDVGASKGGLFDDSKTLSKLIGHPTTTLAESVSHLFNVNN
UniProt P45527: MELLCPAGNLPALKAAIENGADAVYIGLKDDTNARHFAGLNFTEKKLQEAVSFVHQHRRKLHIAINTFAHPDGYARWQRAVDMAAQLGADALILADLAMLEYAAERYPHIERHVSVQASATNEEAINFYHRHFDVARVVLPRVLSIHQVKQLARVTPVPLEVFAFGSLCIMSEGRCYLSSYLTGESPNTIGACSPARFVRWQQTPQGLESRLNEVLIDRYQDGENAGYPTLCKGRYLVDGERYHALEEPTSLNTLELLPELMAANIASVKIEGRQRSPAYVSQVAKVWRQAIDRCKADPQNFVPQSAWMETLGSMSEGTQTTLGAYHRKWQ
UniProt P45424: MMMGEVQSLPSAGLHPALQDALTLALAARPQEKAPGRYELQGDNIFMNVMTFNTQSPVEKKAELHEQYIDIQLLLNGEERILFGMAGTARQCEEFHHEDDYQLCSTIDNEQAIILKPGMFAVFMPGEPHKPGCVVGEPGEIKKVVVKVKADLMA

| Target | log2 fold change |
| --- | --- |
| UniProt P37626 (peptide sequence: RIAADIDDSELKAPR, peptide start residue: 204) | 0.163 |
| UniProt P45769 (peptide sequence: SLCMKPK, peptide start residue: 161) | 0.24 |
| UniProt P39315 (peptide sequence: VISEAGHEGK, peptide start residue: 181) | -0.384 |
| UniProt P45527 (peptide sequence: WQQTPQGLESR, peptide start residue: 201) | -0.0708 |
| UniProt P45424 (peptide sequence: PQEKAPGR, peptide start residue: 30) | -0.335 |

From the supplement of paper PMC12819154, “High-throughput peptide-centric local stability assay extends protein–ligand identification to membrane proteins, tissues and bacteria” (Nature Structural & Molecular Biology, 2025)
